Reference: PubChem BioAssay AID1724 (National Center for Advancing Translational Sciences (NCATS), 2009)
Inconclusive means that the source gave no clear call. Such entries were picked first, then a sample of the others. Potencies beside an inconclusive call are fits to weak or partial responses and may not hold up. Active and inactive are the calls of the source. Calls follow the shape of the dose curve; as a rule, active = well fitted inhibition curve with a large enough effect; inconclusive = small, poorly fitted or top-dose-only effect, or effect the other way; inactive = no such curve, though single readings can be large or run the other way.

Assay: Confirmation Concentration-Response Assay for Inhibitors of the ERK Signaling Pathway using a Homogeneous Screening Assay
Settings: HEK293 cells, hormone-stimulated phospho-ERK AlphaScreen; activity change, negative = inhibition: at 40.9 µM (top of the series) unless noted
Excerpt: qHTS Assay for Inhibitors of the ERK Signaling Pathway using a Homogeneous Screening Assay
NIH Chemical Genomics Center [NCGC]
NIH Molecular Libraries Screening Centers Network [MLSCN]
Assay Submitter (PI): Dr. Wei Zheng, NCGC/NIH
The Ras/extracellular-signal-regulated kinase (ERK) mitogen activated protein (MAP) kinase signaling pathway (ERK1/2 cascade) plays is a key role in transmitting signals from the cell surface to the nucleus (Nishida and Gotoh 1993; Chang and Karin, 2001). The cascade is initiated by the small G-protein Ras, which recruits Raf […], where activation occurs. Alternatively, this pathway can be activated by elevating intracellular cAMP.
Activation of the ERK pathway is essential in increased cell division and cell survival. Sustained and constitutive activation of the ERK pathway, however, has been linked to uncontrolled cell proliferation, increased cell survival, and tumor progression. Thus, the ERK has been as an attractive target for cancer chemotherapy in the past few years (Sebolt-Leopold and Herrera, 2004). Given its physiological and pathological importance, assessment of ERK phosphorylation has been broadly performed in both basic research and drug discovery. Most assays for the measurement of ERK phosphorylation use the antibody-based detection methods, such as western blot and ELISA. These assays require multiple reagent additions with cell wash steps and are not suitable for high-throughput screening.
The current cell-based ERK phosphorylation assay was performed using AlphaScreen platform. AlphaScreen is a two bead-based proximity-dependent chemical energy transfer luminescent assay platform. The assay reagents (ERK SureFire(TM) kit) were supplied from TGR BioSciences (Australia). In the presence of specific antibodies, phosphorylated ERK will bring "donor" and "acceptor" beads to a proximity range (<200 nm), and subsequently lead a chemical luminescent reaction upon exciting donor beads with 680 nm laser. To exclude the assay-related false positives, we used a biotinylated rabbit IgG to perform counter-screen. The biotinylated antibody mimics the phosphorylated ERK1/2 for bringing streptavidin coated beads and protein-A coated beads to a proximity range for the AlphaScreen detection.
NCGC Assay Protocol Summary:
HEK293 cells stably expressing type-1 vasopressin receptor (V1b) were maintained in DMEM medium (Invitrogen, Carlsbad, CA) at 37C under a humidified atmosphere containing 5% CO2 and 95% air. The medium contained 10% FBS, 2 mM L-glutamine, non-essential amino acid, pyruvate and 50 U/ml penicillin and 50 ug/ml streptomycin (Invitrogen). The aliquots of frozen cells were stored at -135C and used for the compound screening. All compounds were screened as titrations from 0.6 nM to 46 uM final concentration. Vasopressin was used to stimulate the ERK phosphorylation pathway. The ERK phosphorylation in cells was determined using an AlphaScreen assay kit provided by PerkinElmer. Data were normalized to the controls for basal activity (DMSO only) and 100% activation (25 nM vasopressin). AC50 values were determined from concentration-response data modeled with the standard Hill equation.
(1) Seed 4 ul/well of resuspended frozen HEK293 cells containing 2000 cells in white 1536-well plates for overnight with 1% FBS at 37C under a humidified atmosphere containing 5% CO2 and 95% air.
(2) Add 23 nL compounds in DMSO solution. The final titration was 0.6 nM to 46 uM.
(3) Incubate at 37C for 30 min.
(4) Dispense 0.5uL vasopressin (25 nM in final)
(5) Incubate at 37C for 5 min.
(6) Dispense 0.5uL of 1:2 diluted 5x lysis buffer.
(7) Incubate at 37C for 10 min.
(8) Dispense 1.5uL of mixture of activation buffer and reaction buffer with AlphaScreen beads (streptavidin donor beads and protein-A acceptor beads, 10 ng/well for each).
(9) Incubate at room temperature for 5 hr.
(10) Detect the assay plate in an EnVision plate reader (PerkinElmer) using the AlphaScreen detection mode.
[…]

SMILES | Potency | activity change, negative = inhibition
COc1ccc(N=C2C(=Nc3ccc(OC)cc3)N(c3ccc(OC)cc3)C(=S)N2C)cc1 | active: 15.8 µM | –
CCCCOc1cc(C[C@@H]2CNC(=O)N2)ccc1OC | inconclusive: 6.31 µM [inhibitor, full curve, poor fit] | –
CCCOc1ccc(/C=N/Nc2ccccc2[N+](=O)[O-])c(O)c1 | inconclusive: 5.62 µM [inhibitor, full curve, poor fit] | –
CS(=O)(=O)CCNCc1nc(-c2ccc3ncnc(Nc4ccc(OCc5cccc(F)c5)c(Cl)c4)c3c2)cs1 | – | inactive: -36.5%
Fc1ccc(Nc2ncnc3sc4c(c23)CCC4)cc1F | inconclusive: 0.708 µM [inhibitor, partial curve] | –
Cc1ccc(Nc2ncnc3sc(C)c(C)c23)cc1 | – | inactive: -43.3%
O=[N+]([O-])c1ccccc1N/N=C1\CCc2ccccc21 | inconclusive: 1.78 µM [inhibitor, full curve] | –
CN1CCN(c2nc(-c3ccc(N(C)C)cc3)nc3ccccc23)CC1 | – | inconclusive: -34.3% [inhibitor] [at 57.5 µM]
CCC(=O)N1CCN(c2ccc(NC(=O)c3cc4ccccc4o3)cc2Cl)CC1 | active: 12.6 µM | –
CCN(C1CCCCC1)S(=O)(=O)c1ccc(S(=O)(=O)NCc2ccncc2)cc1 | – | inactive: 6.37% [at 57.5 µM]
Fc1cccc(Nc2ncnc3sc4c(c23)CCC4)c1 | inconclusive: 3.98 µM [inhibitor, partial curve, poor fit] | –
C=C[C@@]1(C)CC(=O)[C@@]2(O)[C@@]3(C)[C@@H](O)CCC(C)(C)[C@@H]3[C@H](O)[C@H](OC(C)=O)[C@@]2(C)O1 | – | inactive: -68.1%
Nc1nc2c3ccccc3nc(C3CC3)n2n1 | inconclusive: 14.1 µM [inhibitor, partial curve, poor fit] | –
COc1ccc(-c2ccc(SCC(=O)N3CCCC3)nn2)cc1OC | inconclusive: 8.91 µM [inhibitor, partial curve, poor fit] | –
O=c1c(O)c(-c2ccc(O)c(O)c2)oc2cc(O)ccc12 | inconclusive: 7.94 µM [activator, full curve] | –
CNc1cccc2c1C(=O)c1ccccc1C2=O | active: 14.1 µM | –
O=c1cc(-c2ccc(O)cc2)oc2cccc(O)c12 | inconclusive: 39.8 µM [inhibitor, partial curve, poor fit] | –
CCCN(CCC)S(=O)(=O)c1cccc(C(=O)Nc2ccc3c(c2)OCO3)c1 | – | inactive: -5.48% [at 57.5 µM]
COc1cc2ncnc(NCc3cccc(Cl)c3)c2cc1OC | inconclusive: 2 µM [inhibitor, partial curve] | –
O=C1c2ccccc2C(=O)c2c1cccc2N1CCCC1 | active: 17.8 µM | –

Exported with tabs: entries from further up
SMILES	Potency	activity change, negative = inhibition
CCC(=O)N1CCN(c2ccc(NC(=O)c3cc4ccccc4o3)cc2Cl)CC1	active: 12.6 µM	–
CCN(C1CCCCC1)S(=O)(=O)c1ccc(S(=O)(=O)NCc2ccncc2)cc1	–	inactive: 6.37% [at 57.5 µM]

Following part:

SMILES | Potency | activity change, negative = inhibition
C=C[C@]1(C)CC(=O)[C@@]2(O)[C@@]3(C)C(O)CCC(C)(C)C3C(O)C(OC(C)=O)[C@@]2(C)O1 (stereo not given in full) | – | inactive: -62.4%
c1ccc(Oc2nc(NCc3ccco3)nc(NCc3ccco3)n2)cc1 | – | inactive: -22.3% [at 57.5 µM]
N#CC(C#N)=c1ccc2c(c1)N1C3=C(CCCC3)CC3CCCCC31N=2 (stereo not given) | active: 5.01 µM | –
Cc1cccc(CNc2ncnc3ccc(-c4cccnc4)cc23)c1 | active: 12.6 µM | –
O=[N+]([O-])c1ccccc1N/N=C/c1ccc2c(c1)OCO2 | inconclusive: 2.82 µM [inhibitor, full curve, poor fit] | –
COc1ccccc1CNc1cc(-c2cccc(NS(C)(=O)=O)c2)ncn1 | inconclusive: 12.6 µM [activator, full curve, poor fit] | –
Fc1ccc(Nc2ncnc3sc4c(c23)CCC4)cc1 | inconclusive: 1.58 µM [inhibitor, full curve] | –
N#CC(C#N)=C1C=CC=CN1/C(=C\c1ccco1)C(=O)c1ccc(Cl)cc1 | inconclusive: 11.2 µM [inhibitor, partial curve, poor fit] | –
Cc1ccc(NNc2c(C)nc3ccccc3nc2=O)cc1 | – | inactive: -19.8%
Cc1noc(NS(=O)(=O)c2ccc(NC(=O)COc3ccc(Cl)cc3Cl)cc2)c1C | – | inactive: -28.6% [at 57.5 µM]
COc1cccc(-c2ccc3ncnc(NC4CCNCC4)c3c2)c1 | inconclusive: 12.6 µM [activator, full curve] | –
C=CS(=O)(=O)c1ccc(Oc2ccc(S(=O)(=O)C=C)cc2)cc1 | active: 7.08 µM | –
Cc1sc2ncnc(Nc3ccccc3)c2c1C | – | inactive: -50.7%
COc1cc2ncnc(Nc3cccc(Cl)c3)c2cc1OC | inactive | –
COc1ccc(N=C2C(=Nc3ccc(OC)cc3)N(c3ccc(OC)cc3)C(=S)N2C(=O)c2ccc(OC)cc2)cc1 | inconclusive: 5.01 µM [inhibitor, full curve, poor fit] | –
O=C(Nc1nccs1)c1cc2sccc2n1Cc1ccc(F)cc1 | – | inactive: 25.1% [at 57.5 µM]
Cc1sc2ncnc(Sc3nnnn3-c3ccc(Cl)cc3)c2c1C | – | inactive: 24%
COC(=O)c1cc(-c2ccc(OC)c(OC)c2)on1 | active: 7.08 µM | –
COc1ccc(C2=Nn3c(nnc3-c3ccccc3OC)SC2)cc1OC | active: 2.24 µM | –
COc1ccc(-c2n(CC(=O)OC3CC(C)CCC3C(C)C)c3ccccc3[n+]2C)cc1 (stereo not given) | inconclusive: 22.4 µM [inhibitor, partial curve, poor fit] | –
